Measurements from the supplement of paper PMC10849652.
The list shows a part of the results.

Amino acid sequences for entries named in this document (tags omitted). A change or cut given only in a name is not applied to a line headed by its entry.
UniProt P49903: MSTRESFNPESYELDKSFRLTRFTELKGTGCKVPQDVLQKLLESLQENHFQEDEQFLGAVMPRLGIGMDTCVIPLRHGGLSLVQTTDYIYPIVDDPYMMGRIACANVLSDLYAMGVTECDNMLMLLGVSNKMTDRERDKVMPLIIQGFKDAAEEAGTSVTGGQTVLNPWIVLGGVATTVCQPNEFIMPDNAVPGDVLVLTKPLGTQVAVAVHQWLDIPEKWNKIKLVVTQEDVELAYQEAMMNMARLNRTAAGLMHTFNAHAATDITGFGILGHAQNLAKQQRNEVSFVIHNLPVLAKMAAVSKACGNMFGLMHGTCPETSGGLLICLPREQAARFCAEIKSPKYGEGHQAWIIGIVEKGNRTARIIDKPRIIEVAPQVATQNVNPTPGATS
UniProt Q14141: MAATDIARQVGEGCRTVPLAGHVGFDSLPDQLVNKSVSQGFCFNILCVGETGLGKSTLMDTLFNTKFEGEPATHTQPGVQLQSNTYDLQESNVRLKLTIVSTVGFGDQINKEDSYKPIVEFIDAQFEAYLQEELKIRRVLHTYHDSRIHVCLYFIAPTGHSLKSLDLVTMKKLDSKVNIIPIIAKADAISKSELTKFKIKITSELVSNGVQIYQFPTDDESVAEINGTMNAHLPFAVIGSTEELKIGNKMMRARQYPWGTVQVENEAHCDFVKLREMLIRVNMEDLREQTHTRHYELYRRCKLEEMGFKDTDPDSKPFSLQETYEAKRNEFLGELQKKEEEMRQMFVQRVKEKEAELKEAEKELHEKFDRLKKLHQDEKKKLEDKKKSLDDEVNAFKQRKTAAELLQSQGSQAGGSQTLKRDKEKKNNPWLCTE
UniProt Q16181: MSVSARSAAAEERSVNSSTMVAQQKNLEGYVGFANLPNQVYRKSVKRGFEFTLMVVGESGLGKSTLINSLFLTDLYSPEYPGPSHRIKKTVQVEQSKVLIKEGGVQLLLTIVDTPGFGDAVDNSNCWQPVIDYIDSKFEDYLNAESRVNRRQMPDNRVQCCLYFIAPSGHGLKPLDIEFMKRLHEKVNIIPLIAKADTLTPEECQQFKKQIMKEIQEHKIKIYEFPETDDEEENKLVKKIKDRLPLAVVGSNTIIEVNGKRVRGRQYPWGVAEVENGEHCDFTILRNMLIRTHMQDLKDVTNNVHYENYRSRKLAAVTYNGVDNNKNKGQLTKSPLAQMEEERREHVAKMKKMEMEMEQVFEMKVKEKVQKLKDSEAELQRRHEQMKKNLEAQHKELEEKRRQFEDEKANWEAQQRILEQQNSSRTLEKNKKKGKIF
UniProt O60613, whole entry, looked up: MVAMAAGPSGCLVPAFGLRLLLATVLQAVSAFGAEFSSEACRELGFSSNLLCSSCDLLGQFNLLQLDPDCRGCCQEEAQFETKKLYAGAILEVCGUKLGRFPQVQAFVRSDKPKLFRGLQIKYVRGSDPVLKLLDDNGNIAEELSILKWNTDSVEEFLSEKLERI
UniProt Q96NL6: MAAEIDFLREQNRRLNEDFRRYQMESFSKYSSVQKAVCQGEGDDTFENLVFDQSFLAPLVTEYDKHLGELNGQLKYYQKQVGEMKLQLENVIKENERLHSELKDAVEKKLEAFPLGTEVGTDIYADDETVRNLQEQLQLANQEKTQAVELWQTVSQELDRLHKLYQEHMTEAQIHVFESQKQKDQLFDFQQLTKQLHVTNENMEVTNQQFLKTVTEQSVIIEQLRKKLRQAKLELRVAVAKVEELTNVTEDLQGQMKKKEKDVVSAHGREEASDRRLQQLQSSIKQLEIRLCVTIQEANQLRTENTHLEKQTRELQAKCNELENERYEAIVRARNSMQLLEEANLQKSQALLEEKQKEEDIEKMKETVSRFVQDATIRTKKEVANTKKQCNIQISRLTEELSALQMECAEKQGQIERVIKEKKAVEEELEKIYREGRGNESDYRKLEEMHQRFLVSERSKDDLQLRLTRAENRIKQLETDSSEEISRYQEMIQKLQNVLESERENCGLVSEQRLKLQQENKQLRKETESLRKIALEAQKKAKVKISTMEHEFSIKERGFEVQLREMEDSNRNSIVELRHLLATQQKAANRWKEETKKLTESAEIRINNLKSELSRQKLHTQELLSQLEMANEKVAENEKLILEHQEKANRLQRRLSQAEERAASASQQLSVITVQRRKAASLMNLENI
UniProt Q9H9S3, whole entry, looked up: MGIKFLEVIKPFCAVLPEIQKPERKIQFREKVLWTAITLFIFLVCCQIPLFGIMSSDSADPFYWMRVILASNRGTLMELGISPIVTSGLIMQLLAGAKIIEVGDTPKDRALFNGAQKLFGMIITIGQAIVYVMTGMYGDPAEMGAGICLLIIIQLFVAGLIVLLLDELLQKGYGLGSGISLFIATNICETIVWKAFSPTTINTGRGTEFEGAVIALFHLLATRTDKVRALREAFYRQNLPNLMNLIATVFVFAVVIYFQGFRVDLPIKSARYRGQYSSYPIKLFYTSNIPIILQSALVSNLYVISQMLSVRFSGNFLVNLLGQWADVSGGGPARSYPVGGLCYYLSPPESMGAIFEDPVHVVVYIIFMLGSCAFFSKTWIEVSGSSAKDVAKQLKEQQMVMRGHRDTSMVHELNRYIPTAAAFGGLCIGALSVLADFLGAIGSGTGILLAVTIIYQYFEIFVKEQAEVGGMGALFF
UniProt Q9NVA2: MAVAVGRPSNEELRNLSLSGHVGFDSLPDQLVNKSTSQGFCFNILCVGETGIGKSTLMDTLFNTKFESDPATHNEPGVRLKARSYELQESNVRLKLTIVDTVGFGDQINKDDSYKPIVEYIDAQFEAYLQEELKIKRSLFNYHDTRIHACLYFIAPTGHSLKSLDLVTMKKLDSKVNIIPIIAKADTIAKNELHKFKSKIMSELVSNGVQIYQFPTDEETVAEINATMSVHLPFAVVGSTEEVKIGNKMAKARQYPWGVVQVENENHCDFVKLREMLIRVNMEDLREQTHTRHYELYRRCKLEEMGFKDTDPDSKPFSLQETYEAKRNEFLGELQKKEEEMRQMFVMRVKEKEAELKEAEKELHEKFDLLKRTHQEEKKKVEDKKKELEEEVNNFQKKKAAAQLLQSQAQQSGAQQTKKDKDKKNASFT
UniProt Q9UHR5: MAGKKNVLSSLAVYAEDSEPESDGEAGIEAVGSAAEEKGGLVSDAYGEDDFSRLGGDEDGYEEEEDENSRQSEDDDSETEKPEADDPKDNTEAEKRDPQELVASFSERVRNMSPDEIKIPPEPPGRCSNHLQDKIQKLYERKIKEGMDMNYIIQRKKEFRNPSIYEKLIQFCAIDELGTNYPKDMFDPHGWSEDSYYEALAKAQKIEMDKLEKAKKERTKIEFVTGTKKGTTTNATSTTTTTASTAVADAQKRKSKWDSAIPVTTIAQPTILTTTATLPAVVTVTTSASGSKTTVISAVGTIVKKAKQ
UniProt Q99590: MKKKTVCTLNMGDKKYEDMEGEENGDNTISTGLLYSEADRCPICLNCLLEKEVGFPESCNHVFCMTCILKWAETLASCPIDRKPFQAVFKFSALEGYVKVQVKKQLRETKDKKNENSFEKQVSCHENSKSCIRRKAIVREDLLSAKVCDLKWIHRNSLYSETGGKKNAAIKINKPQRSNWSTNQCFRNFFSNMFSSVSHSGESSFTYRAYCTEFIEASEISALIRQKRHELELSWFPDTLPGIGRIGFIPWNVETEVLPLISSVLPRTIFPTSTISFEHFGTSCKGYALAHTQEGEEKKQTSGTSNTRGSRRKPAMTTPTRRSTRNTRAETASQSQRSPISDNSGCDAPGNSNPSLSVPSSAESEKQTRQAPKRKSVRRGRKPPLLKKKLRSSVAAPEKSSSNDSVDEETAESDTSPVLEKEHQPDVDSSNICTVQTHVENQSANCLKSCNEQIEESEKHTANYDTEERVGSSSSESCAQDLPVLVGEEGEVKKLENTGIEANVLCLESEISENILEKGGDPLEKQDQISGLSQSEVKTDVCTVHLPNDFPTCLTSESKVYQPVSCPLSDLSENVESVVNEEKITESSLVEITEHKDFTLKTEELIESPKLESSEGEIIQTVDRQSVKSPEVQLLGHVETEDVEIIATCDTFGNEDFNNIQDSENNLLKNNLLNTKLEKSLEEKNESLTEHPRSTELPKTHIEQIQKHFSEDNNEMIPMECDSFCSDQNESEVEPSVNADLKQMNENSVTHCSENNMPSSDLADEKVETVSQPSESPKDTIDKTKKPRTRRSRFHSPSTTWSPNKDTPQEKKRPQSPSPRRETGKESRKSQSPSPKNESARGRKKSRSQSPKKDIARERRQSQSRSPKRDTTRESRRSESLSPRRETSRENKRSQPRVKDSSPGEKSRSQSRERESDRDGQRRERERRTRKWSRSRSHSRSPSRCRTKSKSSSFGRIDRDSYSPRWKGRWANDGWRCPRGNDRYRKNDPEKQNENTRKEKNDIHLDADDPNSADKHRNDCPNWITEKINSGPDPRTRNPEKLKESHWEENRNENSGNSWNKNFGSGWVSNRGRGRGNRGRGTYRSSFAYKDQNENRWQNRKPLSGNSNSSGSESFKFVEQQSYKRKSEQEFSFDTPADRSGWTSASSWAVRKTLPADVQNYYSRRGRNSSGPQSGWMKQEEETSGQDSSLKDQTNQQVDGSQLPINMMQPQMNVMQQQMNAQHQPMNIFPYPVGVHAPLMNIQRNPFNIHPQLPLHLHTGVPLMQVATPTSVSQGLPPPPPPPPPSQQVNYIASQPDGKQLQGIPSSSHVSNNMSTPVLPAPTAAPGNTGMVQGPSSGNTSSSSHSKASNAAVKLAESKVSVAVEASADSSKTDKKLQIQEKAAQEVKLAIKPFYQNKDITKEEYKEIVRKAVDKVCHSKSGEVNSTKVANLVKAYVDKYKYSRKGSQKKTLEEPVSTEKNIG
UniProt P55735: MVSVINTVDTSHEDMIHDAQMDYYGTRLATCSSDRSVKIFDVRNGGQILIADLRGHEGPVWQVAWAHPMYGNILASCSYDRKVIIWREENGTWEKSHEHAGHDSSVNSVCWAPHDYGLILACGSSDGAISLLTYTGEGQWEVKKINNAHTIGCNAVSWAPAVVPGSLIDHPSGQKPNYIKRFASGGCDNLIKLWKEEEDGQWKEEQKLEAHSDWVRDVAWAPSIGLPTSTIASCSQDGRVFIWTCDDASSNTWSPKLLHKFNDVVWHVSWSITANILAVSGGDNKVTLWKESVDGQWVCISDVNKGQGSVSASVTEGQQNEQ
UniProt Q9GZR1: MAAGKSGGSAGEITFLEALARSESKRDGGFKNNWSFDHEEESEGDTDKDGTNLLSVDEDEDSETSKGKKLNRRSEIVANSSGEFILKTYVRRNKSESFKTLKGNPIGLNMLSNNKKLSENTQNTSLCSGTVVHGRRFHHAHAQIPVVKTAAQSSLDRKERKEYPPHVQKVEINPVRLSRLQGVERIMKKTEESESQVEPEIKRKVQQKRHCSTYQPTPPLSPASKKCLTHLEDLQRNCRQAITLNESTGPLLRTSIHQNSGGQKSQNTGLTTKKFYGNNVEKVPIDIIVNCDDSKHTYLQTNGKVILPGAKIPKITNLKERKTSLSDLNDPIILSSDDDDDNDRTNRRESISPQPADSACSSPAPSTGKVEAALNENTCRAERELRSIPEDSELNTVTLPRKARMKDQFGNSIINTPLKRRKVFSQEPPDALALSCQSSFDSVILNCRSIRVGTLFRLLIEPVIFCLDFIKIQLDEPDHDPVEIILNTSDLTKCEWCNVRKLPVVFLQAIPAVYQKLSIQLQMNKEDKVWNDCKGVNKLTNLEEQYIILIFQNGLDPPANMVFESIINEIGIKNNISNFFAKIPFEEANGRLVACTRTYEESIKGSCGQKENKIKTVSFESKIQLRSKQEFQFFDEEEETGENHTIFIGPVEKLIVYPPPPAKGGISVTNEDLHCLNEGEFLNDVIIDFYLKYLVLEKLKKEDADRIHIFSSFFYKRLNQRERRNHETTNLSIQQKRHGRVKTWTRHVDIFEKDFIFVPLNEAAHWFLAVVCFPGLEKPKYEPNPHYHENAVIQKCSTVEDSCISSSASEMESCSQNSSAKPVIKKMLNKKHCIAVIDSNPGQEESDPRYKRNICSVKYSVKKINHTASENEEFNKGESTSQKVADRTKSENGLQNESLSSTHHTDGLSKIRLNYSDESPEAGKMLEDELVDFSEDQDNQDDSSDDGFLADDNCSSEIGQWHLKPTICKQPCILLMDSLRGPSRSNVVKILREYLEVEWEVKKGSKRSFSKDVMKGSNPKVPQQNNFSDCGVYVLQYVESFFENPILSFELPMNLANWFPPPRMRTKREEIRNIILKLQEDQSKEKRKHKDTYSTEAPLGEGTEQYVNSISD
UniProt Q99719: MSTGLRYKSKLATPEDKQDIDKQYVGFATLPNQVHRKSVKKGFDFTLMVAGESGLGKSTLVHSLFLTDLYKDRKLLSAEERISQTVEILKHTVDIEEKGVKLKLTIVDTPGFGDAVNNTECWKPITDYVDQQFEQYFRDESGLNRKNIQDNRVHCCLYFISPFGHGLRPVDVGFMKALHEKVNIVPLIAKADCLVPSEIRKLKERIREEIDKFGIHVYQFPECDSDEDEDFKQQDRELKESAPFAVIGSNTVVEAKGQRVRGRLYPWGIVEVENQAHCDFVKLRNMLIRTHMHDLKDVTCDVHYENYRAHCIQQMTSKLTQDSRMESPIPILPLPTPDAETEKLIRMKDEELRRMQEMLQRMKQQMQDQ

Columns and labels:
Experiment in all cases: log2 fold change, soluble protein after heating vs DMSO (PISA); higher = thermal stabilisation; K562 lysate, 10 uM; active = over 0.2 and 3.5 SD of the protein, either way, in both replicates (recomputed)
erlotinib = compound: C#Cc1cccc(Nc2ncnc3cc(OCCOC)c(OCCOC)cc23)c1 [erlotinib]
Summary of the method: (§1)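 Dounce homogenisation of K562 pellets in PBS pH 7.4 with 1 mM MgCl2 produced a crude extract, used at 1 mg/mL protein. Exposure to 10 μM compound lasted 30 min, and aliquots were then heated for 3 min across 48°C-58°C, pooled and brought to 0.5% NP-40 at 4°C. The supernatant after 21,000xg for 90 min was quantified by TMTpro 16plex LC-MS/MS with channel sums equalised. Duplicate values are given as log-two fold change in thermal stability relative to solvent controls.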

[1] = compound: C/C(=N\NC(=O)C1=CC(=CC=C1)S(=O)(=O)N2CCOCC2)/C3=C(C=CC(=C3)Cl)O
Summary of the method: as §1

[2] = compound: C1=CC(=CC=C1C2=NC3=C(N2)C=C(C=C3)C(=O)N)OC4=CC=C(C=C4)Cl
Summary of the method: as §1

[3] = compound: C1=CC2=C(C=CC(=C2)/C=C\3/C(=O)NC(=NCC4=CC=CS4)S3)N=C1
Summary of the method: as §1

[4] = compound: C1=CC2=NC=CN=C2C=C1/C=C/3\C(=O)NC(=O)S3
Summary of the method: as §1

[5] = compound: C1=CC=C(C=C1)C2=NC(=C(N2)C3=CC=NC=C3)C4=CC(=C(C=C4)Cl)O
Summary of the method: as §1

[6] = compound: C1=CC=C2C(=C1)C3=NNC4=CC=CC(=C43)C2=O
Summary of the method: as §1

[7] = compound: C1CCN(C1)C(=O)NC2=CC=CC(=C2)NC3=NC=C(C(=N3)NCCC4=CN=CN4)Br
Summary of the method: as §1

[8] = compound: C1CN(CCC1(CC2=CC=C(C=C2)Cl)N)C3=NC=NC4=C3C=CN4
Summary of the method: as §1

IRAK-1-4 Inhibitor I = compound: C1COCCN1CCN2C3=CC=CC=C3N=C2NC(=O)C4=CC(=CC=C4)[N+](=O)[O-] [IRAK-1-4 Inhibitor I]
Summary of the method: as §1

ibrutinib = compound: C=CC(=O)N1CCC[C@@H](n2nc(-c3ccc(Oc4ccccc4)cc3)c3c(N)ncnc32)C1 [ibrutinib]
Summary of the method: as §1

[9] = compound: CC(=O)c1cnc2ccc(-c3cc(Cl)c(O)c(Cl)c3)nc2c1N[C@H]1CC[C@H](CN(C)C)CC1
Summary of the method: as §1

ralimetinib = compound: CC(C)(C)Cn1c(N)nc2ccc(-c3[nH]c(C(C)(C)C)nc3-c3ccc(F)cc3)nc21 [ralimetinib]
Summary of the method: as §1

[10] = compound: CC(C)(O)CC(=O)NCCn1ccc2ncnc(Nc3ccc(Oc4cccc(C(F)(F)F)c4)c(Cl)c3)c21
Summary of the method: as §1

[11] = compound: CC(C)C1=C2N=C(C=C(N2N=C1)NCC3=CC=CC=C3)NCCCCCCN
Summary of the method: as §1

[12] = compound: CC1=C(C(CC(=O)N1)C2=CC=C(C=C2)C(F)(F)F)C(=O)NC3=C(C=C4C(=C3)C=NN4)F
Summary of the method: as §1

[13] = compound: CC1=C(C2=C(C=C1)C(=O)C3=CC=CC=C3N2CCCN)C
Summary of the method: as §1

[14] = compound: CC1=C(C=C(C=C1)NC(=O)C2=CC(=CC=C2)C(C)(C)C#N)NC3=CC4=C(C=C3)N=CN(C4=O)C
Summary of the method: as §1

[15] = compound: CC1=C(C=C(C=C1)NC(=O)C2=CC(=CC=C2)N(C)C)NC(=O)C3=CC=C(C=C3)O
Summary of the method: as §1

[16] = compound: CC1=CC=C(C=C1)SC2=C3C=C(SC3=CN=C2)C(=O)N
Summary of the method: as §1

Measured: log2 fold change

SEPHS1 (UniProt P49903)
inactive: erlotinib -0.002 | [1] -0.015 | [2] 0.032 | [3] -0.036 | [4] 0.003 | [5] 0.015 | [6] 0.003 | [7] 0.01 | [8] 0.042 | IRAK-1-4 Inhibitor I 0.034 | ibrutinib 0.005 | [9] 0.012 | ralimetinib -0.007 | [10] -0.017 | [11] -0.018 | [12] -0.004 | [13] -0.018 | [14] 0.026 | [15] -0.006 | [16] 0.002

SEC23IP (UniProt Q9Y6Y8)
inactive: erlotinib 0.014 | [1] -0.081 | [2] 0.051 | [3] 0.039 | [4] -0.007 | [5] -0.031 | [6] -0.029 | [7] -0.031 | [8] -0.006 | IRAK-1-4 Inhibitor I 0.015 | ibrutinib 0.005 | [9] -0.028 | ralimetinib -0.006 | [10] -0.021 | [11] -0.016 | [12] -0.03 | [13] -0.002 | [14] -0.041 | [15] -0.016 | [16] -0.014

SEPTIN6 (UniProt Q14141)
inactive: erlotinib 0.003 | [1] 0.036 | [2] -0.021 | [3] -0.077 | [4] -0.106 | [5] 0.028 | [6] 0.006 | [7] -0.004 | [8] -0.021 | IRAK-1-4 Inhibitor I 0.035 | ibrutinib -0.002 | [9] -0.016 | ralimetinib -0.01 | [10] -0.037 | [11] 0 | [12] -0.032 | [13] 0.006 | [14] 0.06 | [15] 0.043 | [16] -0.002

SEPTIN7 (UniProt Q16181)
inactive: erlotinib -0.013 | [1] 0.018 | [2] 0.017 | [3] 0.003 | [4] 0.011 | [5] 0 | [6] 0.09 | [7] 0.001 | [8] -0.006 | IRAK-1-4 Inhibitor I 0.001 | ibrutinib -0.031 | [9] -0.022 | ralimetinib -0.001 | [10] -0.022 | [11] -0.005 | [12] -0.002 | [13] -0.02 | [14] 0.007 | [15] -0.013 | [16] 0.008

SELENOF (UniProt O60613)
inactive: erlotinib 0.037 | [1] 0.017 | [2] 0.037 | [3] -0.001 | [4] -0.049 | [5] 0.006 | [6] 0.044 | [7] 0.09 | [8] 0.038 | IRAK-1-4 Inhibitor I -0.016 | ibrutinib 0.009 | [9] -0.027 | ralimetinib -0.048 | [10] -0.025 | [11] -0.024 | [12] -0.033 | [13] -0.034 | [14] 0.007 | [15] -0.026 | [16] -0.009

SCLT1 (UniProt Q96NL6)
inactive: erlotinib 0.008 | [1] -0.063 | [2] 0.068 | [3] 0 | [4] -0.057 | [5] 0.012 | [6] 0.099 | [7] -0.076 | [8] 0.174 | IRAK-1-4 Inhibitor I 0.019 | ibrutinib 0.04 | [9] 0.067 | ralimetinib -0.043 | [10] -0.023 | [11] 0.018 | [12] 0 | [13] -0.02 | [14] 0.004 | [15] 0.029 | [16] -0.013

SEC61A2 (UniProt Q9H9S3)
inactive: erlotinib 0.06 | [1] -0.029 | [2] -0.033 | [3] -0.012 | [4] -0.001 | [5] -0.029 | [6] 0.002 | [7] -0.038 | [8] -0.006 | IRAK-1-4 Inhibitor I 0.015 | ibrutinib 0.006 | [9] -0.011 | ralimetinib 0 | [10] -0.015 | [11] 0 | [12] 0.026 | [13] -0.083 | [14] 0.083 | [15] -0.101 | [16] -0.026

SEPTIN11 isoform 2 (UniProt Q9NVA2)
inactive: erlotinib 0.001 | [1] -0.051 | [2] 0.04 | [3] 0.012 | [4] -0.033 | [5] 0.002 | [6] -0.011 | [7] 0.007 | [8] 0.014 | IRAK-1-4 Inhibitor I 0.014 | ibrutinib 0.023 | [9] 0.008 | ralimetinib 0.004 | [10] -0.021 | [11] 0.023 | [12] 0.001 | [13] 0.013 | [14] 0.018 | [15] 0.004 | [16] -0.018

SAP30BP (UniProt Q9UHR5)
inactive: erlotinib -0.011 | [1] -0.003 | [2] 0.025 | [3] 0.017 | [4] -0.031 | [5] 0.008 | [6] -0.011 | [7] -0.007 | [8] -0.025 | IRAK-1-4 Inhibitor I -0.016 | ibrutinib -0.01 | [9] -0.011 | ralimetinib -0.019 | [10] -0.024 | [11] -0.054 | [12] -0.013 | [13] -0.005 | [14] 0.035 | [15] 0.034 | [16] -0.021

Quoted from the listing (2 entries):
SCLT1 (UniProt Q96NL6)
inactive: erlotinib 0.008 | [1] -0.063 | [2] 0.068 | [3] 0 | [4] -0.057 | [5] 0.012 | [6] 0.099 | [7] -0.076 | [8] 0.174 | IRAK-1-4 Inhibitor I 0.019 | ibrutinib 0.04 | [9] 0.067 | ralimetinib -0.043 | [10] -0.023 | [11] 0.018 | [12] 0 | [13] -0.02 | [14] 0.004 | [15] 0.029 | [16] -0.013

SEC61A2 (UniProt Q9H9S3)
inactive: erlotinib 0.06 | [1] -0.029 | [2] -0.033 | [3] -0.012 | [4] -0.001 | [5] -0.029 | [6] 0.002 | [7] -0.038 | [8] -0.006 | IRAK-1-4 Inhibitor I 0.015 | ibrutinib 0.006 | [9] -0.011 | ralimetinib 0 | [10] -0.015 | [11] 0 | [12] 0.026 | [13] -0.083 | [14] 0.083 | [15] -0.101 | [16] -0.026

(further entries)

SEPTIN8 (UniProt Q92599)
inactive: erlotinib 0.042 | [1] -0.11 | [2] 0 | [3] -0.016 | [4] -0.009 | [5] 0.006 | [6] 0.057 | [7] 0.01 | [8] 0.001 | IRAK-1-4 Inhibitor I -0.009 | ibrutinib 0.004 | [9] -0.005 | ralimetinib 0.025 | [10] -0.007 | [11] -0.008 | [12] -0.029 | [13] 0.008 | [14] -0.043 | [15] -0.045 | [16] -0.004

SCAF11 (UniProt Q99590)
inactive: erlotinib 0.022 | [1] -0.077 | [2] 0.086 | [3] 0.013 | [4] -0.094 | [5] 0.028 | [6] 0.018 | [7] -0.053 | [8] 0.048 | IRAK-1-4 Inhibitor I -0.014 | ibrutinib 0.041 | [9] -0.002 | ralimetinib 0.021 | [10] -0.033 | [11] 0.011 | [12] -0.012 | [13] -0.041 | [14] 0.021 | [15] -0.004 | [16] -0.041

SEC13 isoform 3 (UniProt P55735)
inactive: erlotinib 0.032 | [1] 0.02 | [2] 0.009 | [3] -0.019 | [4] 0 | [5] -0.001 | [6] -0.033 | [7] -0.019 | [8] 0.006 | IRAK-1-4 Inhibitor I -0.028 | ibrutinib -0.084 | [9] -0.025 | ralimetinib 0.024 | [10] -0.01 | [11] -0.015 | [12] -0.005 | [13] 0.034 | [14] -0.032 | [15] 0.031 | [16] -0.014

SDCCAG8 (UniProt Q86SQ7)
inactive: erlotinib -0.003 | [1] -0.004 | [2] -0.009 | [3] -0.01 | [4] -0.031 | [5] 0.025 | [6] -0.017 | [7] -0.019 | [8] 0.049 | IRAK-1-4 Inhibitor I 0.058 | ibrutinib 0.035 | [9] 0.105 | ralimetinib -0.028 | [10] -0.017 | [11] -0.009 | [12] 0.088 | [13] -0.026 | [14] 0.063 | [15] 0.033 | [16] 0.02

SENP6 (UniProt Q9GZR1)
inactive: erlotinib 0.131 | [1] -0.464 | [2] -0.002 | [3] 0.039 | [4] -0.026 | [5] 0.043 | [6] -0.057 | [7] -0.047 | [8] 0.034 | IRAK-1-4 Inhibitor I 0.011 | ibrutinib 0.011 | [9] 0.044 | ralimetinib 0 | [10] -0.015 | [11] -0.017 | [12] 0.05 | [13] -0.035 | [14] 0.022 | [15] 0.013 | [16] -0.094

SDF4 (UniProt Q9BRK5)
inactive: erlotinib -0.018 | [1] -0.014 | [2] -0.014 | [3] 0.006 | [4] 0.014 | [5] 0.005 | [6] 0.009 | [7] 0.018 | [8] 0.033 | IRAK-1-4 Inhibitor I -0.002 | ibrutinib 0.002 | [9] 0.014 | ralimetinib -0.023 | [10] 0.064 | [11] 0.002 | [12] 0.028 | [13] 0.002 | [14] -0.016 | [15] -0.008 | [16] -0.076

SEPTIN5 (UniProt Q99719)
inactive: erlotinib -0.028 | [1] 0.009 | [2] -0.003 | [3] 0.035 | [4] -0.025 | [5] -0.024 | [6] 0.032 | [7] -0.023 | [8] -0.019 | IRAK-1-4 Inhibitor I -0.021 | ibrutinib 0.066 | [9] -0.014 | ralimetinib 0.021 | [10] 0.025 | [11] 0.009 | [12] 0.019 | [13] -0.043 | [14] -0.014 | [15] -0.019 | [16] 0.018
